Data reported in article PMC5343618.
Results are given in words; binding and its absence hold for the method and conditions named.

Tests used:
[1] = target: elongation factor G (FusA) (B. subtilis 168) (UniProt P80868); test: native gel or EMSA; blue native PAGE (BN-PAGE) of the soluble cytoplasmic fraction and the culture supernatant of B. subtilis after 24 h of cultivation; non-reducing sample buffer, Coomassie blue; mass estimated within ±15%
[2] = target: enolase (Eno) (B. subtilis 168) (UniProt P37869); test: as above

binding [1] | binding [2] | Substance
no binding | – | elongation factor G (FusA) (from UniProt P80868 1-692)
– | no binding | enolase (Eno) (from UniProt P37869 1-430) (enzyme)
